Measured values taken from doi:10.1101/2023.02.09.527835 (bioRxiv, 2023).
Results are given in words; binding and its absence hold for the method and conditions named. In cells and extracts the contact can be indirect. Some binding calls cover weakened binding; strength is not graded here. For some of these results: Where a sequence is shown, tags or fusion partners need not be part of it.

The chains behind the UniProt entries cited, without tags or fusion partners.
UniProt P21730: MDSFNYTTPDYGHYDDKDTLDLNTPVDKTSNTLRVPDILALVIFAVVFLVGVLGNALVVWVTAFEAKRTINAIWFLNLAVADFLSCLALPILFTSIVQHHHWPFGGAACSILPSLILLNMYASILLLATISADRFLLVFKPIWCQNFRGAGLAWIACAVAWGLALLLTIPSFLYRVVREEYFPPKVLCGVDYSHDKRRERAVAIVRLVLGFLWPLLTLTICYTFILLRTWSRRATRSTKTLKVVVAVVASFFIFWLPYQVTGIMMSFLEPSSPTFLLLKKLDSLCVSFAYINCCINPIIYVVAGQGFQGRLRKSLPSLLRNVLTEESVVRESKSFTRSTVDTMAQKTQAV
UniProt P49407: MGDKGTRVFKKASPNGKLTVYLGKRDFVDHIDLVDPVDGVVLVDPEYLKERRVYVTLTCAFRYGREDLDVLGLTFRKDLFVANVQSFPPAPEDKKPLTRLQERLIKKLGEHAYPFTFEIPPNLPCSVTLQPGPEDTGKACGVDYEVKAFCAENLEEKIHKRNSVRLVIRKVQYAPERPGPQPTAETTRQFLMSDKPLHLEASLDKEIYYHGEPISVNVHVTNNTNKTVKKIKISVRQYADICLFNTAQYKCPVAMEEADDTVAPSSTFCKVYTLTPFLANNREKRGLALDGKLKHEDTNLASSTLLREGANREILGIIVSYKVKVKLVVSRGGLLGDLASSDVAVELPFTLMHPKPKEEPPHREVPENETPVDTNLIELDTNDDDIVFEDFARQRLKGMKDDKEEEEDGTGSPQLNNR
UniProt P32121: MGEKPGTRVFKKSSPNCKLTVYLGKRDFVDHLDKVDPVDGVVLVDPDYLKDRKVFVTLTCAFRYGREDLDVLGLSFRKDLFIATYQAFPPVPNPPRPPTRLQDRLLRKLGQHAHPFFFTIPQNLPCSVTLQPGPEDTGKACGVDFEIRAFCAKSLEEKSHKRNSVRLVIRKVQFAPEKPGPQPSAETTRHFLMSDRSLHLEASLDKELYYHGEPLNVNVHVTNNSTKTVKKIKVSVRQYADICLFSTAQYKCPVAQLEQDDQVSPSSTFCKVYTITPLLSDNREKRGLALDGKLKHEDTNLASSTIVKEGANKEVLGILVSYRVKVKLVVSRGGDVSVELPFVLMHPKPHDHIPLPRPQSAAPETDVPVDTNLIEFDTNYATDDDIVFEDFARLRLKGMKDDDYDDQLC

Columns and labels:
[1] = biological target: T1, C3aR with SmBiT fused at the C-terminus (Receptor-SmBiT) (human) (UniProt Q16581); test: split reporter
T1 sequence: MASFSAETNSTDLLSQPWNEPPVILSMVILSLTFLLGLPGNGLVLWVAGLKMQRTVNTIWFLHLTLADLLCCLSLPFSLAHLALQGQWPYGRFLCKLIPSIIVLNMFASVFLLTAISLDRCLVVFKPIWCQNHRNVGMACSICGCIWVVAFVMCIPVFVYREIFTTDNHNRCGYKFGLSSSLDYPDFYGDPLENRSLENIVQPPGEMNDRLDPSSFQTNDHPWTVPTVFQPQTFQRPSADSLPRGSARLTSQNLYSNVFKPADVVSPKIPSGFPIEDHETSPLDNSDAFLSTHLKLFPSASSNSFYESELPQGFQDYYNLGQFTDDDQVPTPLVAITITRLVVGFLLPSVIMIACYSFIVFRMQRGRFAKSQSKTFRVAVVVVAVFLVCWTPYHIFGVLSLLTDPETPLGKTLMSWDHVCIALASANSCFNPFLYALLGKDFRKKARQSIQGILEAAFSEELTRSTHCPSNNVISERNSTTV

[2] = biological target: C5aR1 with SmBiT fused at the C-terminus (Receptor-SmBiT) (UniProt P21730); test: split reporter

Row | binding [1] | binding [2] | Substance
1 | binds | binds | βarr1 with N-terminal LgBiT (from UniProt P49407 1-418)
2 | binds | binds | βarr2 with N-terminal LgBiT (from UniProt P32121 1-409)
